# Construct, isoform or probe ends are uncertain for at least one entry. For part of these data: Negatives hold for the conditions tested. For part of these data: At least one verdict was read from the data and is not stated in words by the source. For part of these data: The comparison behind a weaker result is the experiment's own reference, which may not be listed here.
# Amino acid sequences for entries named in this document (tags omitted). Residues count along the entry.
# UniProt P01106, 16-454: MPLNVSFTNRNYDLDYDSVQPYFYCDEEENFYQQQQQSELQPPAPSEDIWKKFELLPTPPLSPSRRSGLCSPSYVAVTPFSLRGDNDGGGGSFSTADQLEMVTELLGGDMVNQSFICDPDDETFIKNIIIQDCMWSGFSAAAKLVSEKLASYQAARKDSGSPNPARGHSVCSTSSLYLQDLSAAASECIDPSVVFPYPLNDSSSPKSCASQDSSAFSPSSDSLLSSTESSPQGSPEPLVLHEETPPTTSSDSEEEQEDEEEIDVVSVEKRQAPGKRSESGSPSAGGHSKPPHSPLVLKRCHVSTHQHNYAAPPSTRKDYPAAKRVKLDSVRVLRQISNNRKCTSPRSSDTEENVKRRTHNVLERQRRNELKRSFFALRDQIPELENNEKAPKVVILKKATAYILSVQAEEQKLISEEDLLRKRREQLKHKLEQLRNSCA
# UniProt O15527, whole entry C241A: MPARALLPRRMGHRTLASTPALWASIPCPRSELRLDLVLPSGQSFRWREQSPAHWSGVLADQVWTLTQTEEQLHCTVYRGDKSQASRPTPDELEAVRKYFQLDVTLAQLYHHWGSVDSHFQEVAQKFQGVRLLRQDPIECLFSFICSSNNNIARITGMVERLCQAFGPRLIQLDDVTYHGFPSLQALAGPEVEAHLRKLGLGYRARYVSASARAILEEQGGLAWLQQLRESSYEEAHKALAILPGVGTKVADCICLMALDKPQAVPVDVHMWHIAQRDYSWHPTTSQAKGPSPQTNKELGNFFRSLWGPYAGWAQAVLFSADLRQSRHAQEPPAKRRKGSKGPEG
# UniProt O15527, whole entry: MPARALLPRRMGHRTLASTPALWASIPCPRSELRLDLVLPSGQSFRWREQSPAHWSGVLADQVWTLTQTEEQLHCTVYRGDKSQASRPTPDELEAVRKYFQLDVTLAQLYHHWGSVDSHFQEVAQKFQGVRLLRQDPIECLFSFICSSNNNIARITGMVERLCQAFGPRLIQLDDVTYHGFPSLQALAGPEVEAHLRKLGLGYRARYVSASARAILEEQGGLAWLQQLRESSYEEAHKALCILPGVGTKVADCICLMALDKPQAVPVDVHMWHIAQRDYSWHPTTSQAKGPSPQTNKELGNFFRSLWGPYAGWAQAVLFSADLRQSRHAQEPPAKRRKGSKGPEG
# Assays:
# [1] = target: c-Myc (UniProt P01106); assay: binding control, method not stated; conditions: activity assay conditions; 8-oxoguanine at position 26 of strand 1 (written G); commercial protein; protein details: GST, quantum dot in E-box AFM; label: 5' fluorophore on top strand
# [2] = target: hOGG1 C241A (human) (UniProt O15527); assay: fluorescence polarisation; conditions: KD in Fig. S1 table, not in material; 8-oxoguanine at position 10 of strand 1 (written G); FP at 25°C with 5 nM labelled DNA; interaction buffer 20 mM Tris-HCl pH 7.6, 200 mM NaCl (Fig. S12); recombinant protein; protein details: N-terminal His6 (removed where required); label: 5' AF647 (FP) or Cy3 (EMSA) on bottom strand
# [3] = target: hOGG1 wild type (human) (UniProt O15527); assay: EMSA; conditions: dimers only, redox independent; EMSA room temp 30 min, 15% native PAGE 0.5x TBE 4°C; interaction buffer 20 mM Tris-HCl pH 7.6, 200 mM NaCl (Fig. S12); recombinant protein; label: 5' AF647 (FP) or Cy3 (EMSA) on bottom strand; letters put together from the description
sequence,measurement,setting,value
GCATGCCTCGAGTCTAGAGGTACCAGATCTGATCCTCTAGAGTCGACC (double strand) [oxoG activity substrate 48 bp],binding result,[1],no binding
GCATGCCTCGAGTCTAGAGGTACCAGATCTGATCCTCTAGAGTCGACC (double strand) [oxoG 48 bp (EMSA/FP)],binding result,[2],binds more weakly
GCATGCCTCGAGTCTAGAGGTACCAGATCTGATCCTCTAGAGTCGACC (double strand) [undamaged (nsp) 48 bp],binding result,[3],binds more weakly
